Results: PubChem BioAssay AID493014 (National Center for Advancing Translational Sciences (NCATS), 2011)
The other results are listed elsewhere or left out. Shown are side measurements of this screen, not its main read-out; they come without a call. The list favours compounds with an active or inconclusive main result. Potencies come from curve fits of mixed quality, noted in brackets.

Test: qHTS Assay to Find Inhibitors of Chronic Active B-Cell Receptor Signaling
Settings: ABC-DLBCL IkBa-CBG/CBR reporter, luminescence ratio (green luciferase fused to IkBa over red control in TMD8 lymphoma cells), 4 h
Outline: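 Cell line TMD8 (human ABC DLBCL), stably expressing tet-inducible CBG68-IkBa fusion and CBR; IMDM/0.5% FBS; cpd up to 46 uM; dox induction, 4 h, 37C/5% CO2; dual luminescence; green/red ratio; MG132 control.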

[1] = measured here: CBR red luminescence, cell number
[2] = measured here: IkBa-CBG green luminescence

SMILES | AC50 [1] | AC50 [2]
O=C(COc1ccccc1)N(Cc1ccco1)C1CCS(=O)(=O)C1 (configuration not stated) | 3.98 µM [falling, partial curve, poor fit] | –
O=S(=O)(Nc1cccc(S(=O)(=O)N2CCOCC2)c1)c1ccc2c(c1)OCCO2 | 0.2 µM [falling, full curve, poor fit] | –
Fc1ccc(C(Nc2ccccn2)c2c[nH]c3ccccc23)cc1 (configuration not stated) | 8.91 µM [falling, partial curve, poor fit] | –
COc1cc(OC)cc(-c2nnc(SCc3cccc(C(=O)O)c3)o2)c1 | 8.2 µM [falling, partial curve] | –
Cc1ccc(SCc2nc3ccccc3[nH]2)cc1 | 12.6 µM [falling, single point] | –
O=C(CCC1N=C2c3ccccc3N=C(SCc3ccc(F)cc3)N2C1=O)NCc1cccs1 (configuration not stated) | 25.1 µM [falling, single point] | –
COc1ccc(/C=C2\CCC(C3CCCC3)C2=O)cc1Cn1nc(C)cc1C (configuration not stated) | 0.517 µM [rising, full curve, poor fit] | –
O=C(Nc1cccc2ccccc12)c1ccc([N+](=O)[O-])cc1 | 1 µM [falling, full curve] | –
CCN(C(=O)COC(=O)c1ccc([N+](=O)[O-])o1)c1cccc2ccccc12 | 3.66 µM [falling, partial curve, poor fit] | –
CN(C)S(=O)(=O)c1ccc(Cl)c(NC(=O)CSc2nnnn2-c2ccc(O)cc2)c1 | 15.8 µM [falling, partial curve, poor fit] | –
Cc1ccc(C)n1-c1sc2c(c1C#N)CCC(C)C2 (configuration not stated) | 0.164 µM [falling, full curve, poor fit] | –
CSc1c(C#N)c(N)nc2sc(C(=O)c3ccc(Cl)c(Cl)c3)c(N)c12 | 0.282 µM [falling, full curve, poor fit] | –
O=C(c1ccc(F)cc1)N(C(=O)c1ccc(F)cc1)c1ncccn1 | 35.5 µM [falling, single point] | –
CCOC(=O)CC(NS(=O)(=O)c1ccc2[nH]c3c(c2c1)CCCC3)c1ccccc1Cl (configuration not stated) | 12.6 µM [falling, partial curve, poor fit] | –
O=C(NCC(c1ccco1)N1CCN(c2ccc(F)cc2)CC1)c1ccco1 (configuration not stated) | 25.9 µM [rising, single point] | –
CC(=O)Nc1ccc(OC(=O)c2ccc(Br)c([N+](=O)[O-])c2)cc1 | 7.94 µM [falling, partial curve, poor fit] | –
Cn1c(C=O)c(C#Cc2ccccc2)c2ccccc21 | 20.6 µM [rising, single point] | –
Fc1ccc(-c2nnc(-c3ccc(Cl)cc3Cl)o2)cc1 | 0.092 µM [rising, full curve, poor fit] | –
CCc1ccc(OCc2n[nH]c(=S)n2C(C)CCCC(C)C)cc1 (configuration not stated) | 35.5 µM [falling, single point] | –
S=C(NCCc1ccc(Cl)cc1)Nc1ccc(Cl)cc1Cl | 0.103 µM [falling, full curve, poor fit] | –

Sorted by molar mass (falling): 3 of the compounds above.
SMILES | AC50 [1] | AC50 [2]
CCOC(=O)CC(NS(=O)(=O)c1ccc2[nH]c3c(c2c1)CCCC3)c1ccccc1Cl (configuration not stated) | 12.6 µM [falling, partial curve, poor fit] | –
O=C(c1ccc(F)cc1)N(C(=O)c1ccc(F)cc1)c1ncccn1 | 35.5 µM [falling, single point] | –
O=C(Nc1cccc2ccccc12)c1ccc([N+](=O)[O-])cc1 | 1 µM [falling, full curve] | –

Carrying on.

SMILES | AC50 [1] | AC50 [2]
Cc1onc(-c2ccccc2)c1C(=O)NC(C)c1ccc2c(c1)OCO2 (configuration not stated) | 35.5 µM [falling, single point] | –
O=C1C=C(c2cc3ccccc3o2)C[C@@H](c2ccc(F)cc2)C1 | 16.4 µM [rising, partial curve, poor fit] | –
CCOC(=O)Cc1csc(NC(=O)c2ccc(OC)c(OC)c2)n1 | 5.62 µM [falling, partial curve] | –
Cc1cc([N+](=O)[O-])ccc1NC(=O)CCC(=O)N1CCCCCC1 | 2.51 µM [rising, full curve, poor fit] | –
CC(C)C(=O)Nc1ccc2c(c1)nc(CCN1CCN(c3ccccc3)CC1)n2C | 35.5 µM [falling, single point] | –
COc1cc(OC)c(OC)cc1/C=C/c1nc2cc3ccccc3cc2c(=O)n1-c1ccc(Cl)cc1 | 2.51 µM [falling, partial curve] | –
COc1ccc(C)cc1N(CC(=O)Nc1cccnc1)S(=O)(=O)c1ccc(C)cc1 | 2 µM [falling, full curve, poor fit] | –
COC(=O)c1oc2c(c1C)C1(CCC2)SCCS1 | 32.6 µM [rising, single point] | –
CC(OC(=O)c1ccccc1CCc1ccccc1)C(N)=O (configuration not stated) | 35.5 µM [falling, single point] | –
COc1ccc(C(=O)N2CCN(Cc3ccccc3C)CC2)cc1OC | 0.92 µM [rising, full curve, poor fit] | –
COc1cc(CNCCO)cc(Cl)c1OCc1ccc(Cl)cc1Cl | 14.1 µM [falling, partial curve, poor fit] | 17.8 µM [rising, single point]
COc1ccc(-c2cc(-c3ccccc3)n3ncnc3n2)cc1 | 22.4 µM [falling, single point] | –
CCN(CC)c1ccc(/C=C(\C#N)C(=O)NCc2ccco2)cc1 | 5.8 µM [rising, full curve, poor fit] | 6.51 µM [falling, partial curve, poor fit]
Cc1ccc(-n2nc(C)c(NC(=O)CCl)c2C)cc1 | 13 µM [falling, partial curve] | –
Cc1nc(SCC(=O)N2CC(=O)Nc3ccccc32)c2c(C)c(C)sc2n1 | 2 µM [rising, full curve, poor fit] | –
O=C(NCc1ccccc1)C(c1ccc(F)cc1)N(C(=O)c1csnn1)c1ccccc1 (configuration not stated) | 10 µM [falling, partial curve] | –
CCOC(=O)c1c(NC(=O)COc2ccccc2C#N)sc2c1CC(C)(C)NC2(C)C | 35.5 µM [rising, single point] | –
CN(C)CC(C(=O)c1ccccc1)c1ccccc1 (configuration not stated) | 20.6 µM [falling, single point] | –
CC(C)[C@@H]1COC(c2cccc(C3=N[C@H](C(C)C)CO3)c2)=N1 | 22.4 µM [rising, partial curve, poor fit] | –
Cc1ccc(C(C)C)cc1OCC(=O)N/N=C/c1ccc2c(c1)OCCO2 | 29.1 µM [falling, single point] | –
